Data published in PMC9405727, “A Setmelanotide-like Effect at MC4R Is Achieved by MC4R Dimer Separation” (Biomolecules, 2022).
Results are given in words; binding and its absence hold for the method and conditions named. In cells and extracts the contact can be indirect. Some binding calls cover weakened binding; strength is not graded here.

The chains behind the UniProt entries cited, without tags or fusion partners.
UniProt P32245: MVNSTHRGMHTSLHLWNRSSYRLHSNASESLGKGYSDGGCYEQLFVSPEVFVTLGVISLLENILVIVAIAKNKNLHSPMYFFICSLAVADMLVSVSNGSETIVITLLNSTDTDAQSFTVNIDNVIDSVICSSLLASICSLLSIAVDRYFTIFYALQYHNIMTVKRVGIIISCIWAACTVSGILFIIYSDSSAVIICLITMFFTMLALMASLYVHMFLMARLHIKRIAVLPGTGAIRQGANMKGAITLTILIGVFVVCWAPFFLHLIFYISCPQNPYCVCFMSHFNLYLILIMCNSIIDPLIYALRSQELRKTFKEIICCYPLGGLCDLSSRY

Tests used:
[1] = target: Melanocortin 4 receptor, wild type (MC4R-WT) (UniProt P32245); test: FRET or BRET; donor saturation assay (DSA) by NanoBRET in HEK293 cells, to test the specificity of the homodimer interaction
[2] = target: Melanocortin 4 receptor, wild type (MC4R-WT) (UniProt P32245); test: FRET or BRET; NanoBRET in living HEK293 cells co-transfected with a NanoLuc fusion (donor; written as binder) and a HaloTag fusion (acceptor, ligand 618; written as target), NL/HT DNA ratio 1:5; BRET ratio in mBU after subtraction of the no-acceptor control; delta BRET = chimera minus MC4R-WT homodimer

Substance: Melanocortin 4 receptor, wild type (MC4R-WT) (from UniProt P32245 1-332)
- binding [1]: binds
- binding [2]: binds
